Measurements reported in PubChem BioAssay AID1159508 (Drosophila RNAi Screening Center, 2015)
Aim: 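Viability reference data for a dsRNA library against RNA-binding protein genes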. Cell system: Drosophila S2R+ cells. Knock-down reagent: long dsRNA against Drosophila genes. Timing: 5 days. Detection: 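Luminescent ATP signal as a proxy for cell fitness after 5 days of RNAi, given as a z-score in each replicate and averaged over replicates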. Scale: mean ATP z-score and ATP z-score: higher = more total ATP luminescence. Active means: In these data the active calls have mean ATP z-score at about -2 or lower, or at about 2 or higher. Calls: active = strong ATP change (up or down); inactive = no strong ATP change.
Shown is one part, drawn at random, of 812 deposited reagents. 18 of all reagents (2.2%) were called active. 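Calls include both increased and decreased ATP; roughly one in four reagents has no third replicate value.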 Not all columns of the deposit are shown. Not given: the amount of reagent.

With knock-down of how (held out wings) [DRSC25008], the record shows mean ATP z-score 0.27; ATP z-score, replicate 1 = -0.707; inactive.
After knock-down of how (held out wings) [DRSC40698] the results were mean ATP z-score 0.0816; ATP z-score, replicate 1 = -0.129; inactive.
Hrb87F (Heterogeneous nuclear ribonucleoprotein at 87F) [DRSC29600] gave mean ATP z-score 0.603; ATP z-score, replicate 1 = 0.498; inactive.
With knock-down of Hrb87F (Heterogeneous nuclear ribonucleoprotein at 87F) [DRSC35793], the record shows mean ATP z-score 0.0489; ATP z-score, replicate 1 = -0.0274; inactive.
With knock-down of CG14506 [DRSC14858], the screen gave mean ATP z-score 0.638; ATP z-score, replicate 1 = 0.357; inactive.
For CG14506 [DRSC42706], the values are mean ATP z-score -0.446; ATP z-score, replicate 1 = -0.651; inactive.
CG8611 [DRSC19340] gave mean ATP z-score 0.574; ATP z-score, replicate 1 = 0.395; inactive.
Silencing of CG8611 [DRSC24619] resulted in: mean ATP z-score 0.625; ATP z-score, replicate 1 = 0.49; inactive.
Silencing of CstF64 (Cleavage stimulation factor 64 kD subunit) [DRSC29486] came out at: mean ATP z-score 1.58; ATP z-score, replicate 1 = 0.499; inactive.
Knock-down of CstF64 (Cleavage stimulation factor 64 kD subunit) [DRSC35659] came out at: mean ATP z-score 1.32; ATP z-score, replicate 1 = 0.849; inactive.
For CG11837 [DRSC14397], the entry reads mean ATP z-score 1.13; ATP z-score, replicate 1 = 0.185; inactive.
Silencing of CG11837 [DRSC42705] resulted in: mean ATP z-score -0.211; ATP z-score, replicate 1 = -0.96; inactive.
Against BicD (Bicaudal D) [DRSC02006], the entry reads mean ATP z-score 0.092; ATP z-score, replicate 1 = -0.0477; inactive.
Against Rbp9 (RNA-binding protein 9) [DRSC29834], the values are mean ATP z-score -1.01; ATP z-score, replicate 1 = -0.946; inactive.
After knock-down of Rbp9 (RNA-binding protein 9) [DRSC33095] the results were mean ATP z-score -0.0418; ATP z-score, replicate 1 = -0.157; inactive.

Look-ups from the list.
Under “Call”, CG11837 [DRSC14397] is entered as inactive
Entry of how (held out wings) [DRSC40698] under “Call”: inactive
Value for CG14506 [DRSC14858] under “Call”: inactive
Hrb87F (Heterogeneous nuclear ribonucleoprotein at 87F) [DRSC35793], ATP z-score, replicate 1 → -0.0274

Additional records follow:
Depletion of Msp300 (Muscle-specific protein 300 kDa) [DRSC03370] came out at: mean ATP z-score -0.536; ATP z-score, replicate 1 = -0.694; inactive.
With knock-down of Msp300 (Muscle-specific protein 300 kDa) [DRSC40679], the record shows mean ATP z-score 0.377; ATP z-score, replicate 1 = 0.0507; inactive.
Against CG3927 [DRSC04433], the values are mean ATP z-score -0.258; ATP z-score, replicate 1 = -1.08; inactive.
With knock-down of CG3927 [DRSC42281] the results were mean ATP z-score 1.17; ATP z-score, replicate 1 = 0.705; inactive.
Against Hrb98DE (Heterogeneous nuclear ribonucleoprotein at 98DE) [DRSC24508] the deposit lists mean ATP z-score 0.977; ATP z-score, replicate 1 = 0.489; inactive.
Knock-down of Hrb98DE (Heterogeneous nuclear ribonucleoprotein at 98DE) [DRSC34919] resulted in: mean ATP z-score 0.602; ATP z-score, replicate 1 = 0.269; inactive.
For CG7006 [DRSC16169], the entry reads mean ATP z-score -0.168; ATP z-score, replicate 1 = -0.455; inactive.
Depletion of CG7006 [DRSC36269] gave: mean ATP z-score 0.256; ATP z-score, replicate 1 = -0.222; inactive.
U2af50 (U2 small nuclear riboprotein auxiliary factor 50) [DRSC20297] showed mean ATP z-score -0.589; ATP z-score, replicate 1 = -0.782; inactive.
U2af50 (U2 small nuclear riboprotein auxiliary factor 50) [DRSC37266] scored mean ATP z-score -0.608; ATP z-score, replicate 1 = -0.956; inactive.
Against Cpsf6 (Cleavage and polyadenylation specific factor 6) [DRSC10781], the values are mean ATP z-score 0.715; ATP z-score, replicate 1 = 0.398; inactive.
After knock-down of Cpsf6 (Cleavage and polyadenylation specific factor 6) [DRSC34893] the results were mean ATP z-score 2.45; ATP z-score, replicate 1 = 1.55; active.
Knock-down of CG11123 [DRSC06040] came out at: mean ATP z-score -0.171; ATP z-score, replicate 1 = -0.546; inactive.
Depletion of CG11123 [DRSC28420] resulted in: mean ATP z-score -0.0809; ATP z-score, replicate 1 = -0.324; inactive.
After knock-down of Irp-1A (Iron regulatory protein 1A) [DRSC16719], the screen gave mean ATP z-score -0.337; ATP z-score, replicate 1 = -0.609; inactive.
Against Irp-1A (Iron regulatory protein 1A) [DRSC42649], the values are mean ATP z-score -0.314; ATP z-score, replicate 1 = -0.425; inactive.
Knock-down of Su(var)2-10 (Suppressor of variegation 2-10) [DRSC28335] gave: mean ATP z-score -0.519; ATP z-score, replicate 1 = -0.574; inactive.
For Su(var)2-10 (Suppressor of variegation 2-10) [DRSC33201] the deposit lists mean ATP z-score 2.15; ATP z-score, replicate 1 = 1.53; active.
Against eIF1 (eukaryotic translation initiation factor 1) [DRSC30115] the deposit lists mean ATP z-score 0.517; ATP z-score, replicate 1 = -0.252; inactive.
For eIF1 (eukaryotic translation initiation factor 1) [DRSC42073], the values are mean ATP z-score 0.973; ATP z-score, replicate 1 = 0.216; inactive.
Silencing of bel (belle) [DRSC31929] gave: mean ATP z-score -1.33; ATP z-score, replicate 1 = -1.47; inactive.
Against bel (belle) [DRSC31930] the deposit lists mean ATP z-score -0.536; ATP z-score, replicate 1 = -0.996; inactive.
After knock-down of eIF3g1 (eukaryotic translation initiation factor 3 subunit g1) [DRSC29282], the record shows mean ATP z-score 1.46; ATP z-score, replicate 1 = 0.605; inactive.
Against eIF3g1 (eukaryotic translation initiation factor 3 subunit g1) [DRSC32087] the deposit lists mean ATP z-score 0.142; ATP z-score, replicate 1 = -0.123; inactive.
With knock-down of Slu7 [DRSC23582], the record shows mean ATP z-score 0.732; ATP z-score, replicate 1 = 0.534; inactive.
Silencing of Slu7 [DRSC31779] resulted in: mean ATP z-score -0.269; ATP z-score, replicate 1 = -0.71; inactive.
